# Source: patent US20230203130A1 (Hubro Therapeutics AS, priority 2020, published 2023)
# Experiment: general procedure: Fmoc solid-phase peptide synthesis
# Settings: whole synthesis
# [1] = UPLC, Acquity UPLC BEH C18, PDA 210-500 nm, 0.1% TFA in water / 0.1% TFA in MeCN, 6TFA
# [2] = UPLC, Acquity UPLC BEH C18, PDA 210-500 nm, 0.1% TFA in water / 0.1% TFA in MeCN
# [3] = UPLC, Acquity UPLC BEH C18, PDA 210-500 nm, 0.1% TFA in water / 0.1% TFA in MeCN, 2TFA
sequence,measurement,setting,value
KCIMKEKKSLVRLSSCVPVALMSA (listed as Homo sapiens),final HPLC purity,[1],96%
KCIMKEKKSLVRLSSCVPVALMSAMTTSSSQKN (listed as Homo sapiens),crude HPLC purity,[2],around 75%
same,final HPLC purity,[2],about 90%
same,final HPLC purity,"UPLC, Acquity UPLC BEH C18, PDA 210-500 nm, 0.1% TFA in water / 0.1% TFA in MeCN, 7TFA",~50%
same,difficulty met,run 1,"Only very small amounts of the desired peptide were obtained, and analysis by UPLC found that the peptide was impure"
same,difficulty met,run 2,"Again, only very small amounts of purified fsp5 (SEQ ID NO: 19) were obtained"
KGIMKEKKSLVRLSSCVPVALMSA (Modified peptide),final HPLC purity,[1],97%
SSCVPVALMSAMTTSSSQKN,final HPLC purity,[3],94.8%
SSGVPVALMSAMTTSSSQKN (Modified peptide),final HPLC purity,[3],91.9%

# Plain letter strings leave the end groups untold.
